Reference: patent publication US8841332B2, “Fungicidal N-(2-phenoxyethyl)carboxamide derivatives and their aza, thia and sila analogues” (Bayer Intellectual Property GmbH, priority 2008, dated 2014)
Some of these results come from one statement about several compounds together. At least one structure is not confirmed: it was looked up by name or label, or the drawing left a doubt.

How the values were obtained:
Alternaria solani = assay: Alternaria test (tomato)/preventive; format: in vivo; settings: preventive, 500 ppm of active ingredient, evaluated 7 days after inoculation
Pyrenophora teres = assay: Pyrenophora test (barley)/preventive; format: in vivo; settings: preventive, 500 ppm of active ingredient, evaluated 7-9 days after inoculation
[1] = tested on: Mycosphaerella graminicola; assay: In vivo test on Mycosphaerella graminicola (wheat leaf spot); settings: wheat (Scipion variety), dose of 500 ppm, grading 21 to 28 days after contamination

Row | SMILES | efficacy (Alternaria solani) | efficacy (Pyrenophora teres) | protection (% of efficacy) [1]
1 | O=C(c1cncs1)N(CCOc1ccc(Cl)cc1)C1CC1 [Example 1] | ≥ 70% | ≥ 70% | –
2 | Cc1ncc(C(=O)N(CCOc2ccc(Cl)cc2)C2CC2)s1 [Example 5] | – | ≥ 70% | –
3 | Cn1cc(C(=O)N(CCOc2ccc(Cl)cc2)C2CC2)c(C(F)F)n1 [Example 6] | ≥ 70% | ≥ 70% | at least 70%
4 | Cn1cc(C(=O)N(CCOc2ccc(Cl)cc2)C2CCC2)c(C(F)F)n1 [Example 7] | – | ≥ 70% | –
5 | Cn1cc(C(=O)N(CCOc2ccc(Cl)cc2)C2CCCC2)c(C(F)F)n1 [Example 8] | – | ≥ 70% | –
6 | Cn1cc(C(=O)N(CCOc2ccccc2)C2CC2)c(C(F)F)n1 [Example 9] | – | ≥ 70% | –
7 | CC(COc1ccc(Cl)cc1Cl)N(C(=O)c1cn(C)nc1C(F)(F)F)C1CC1 (stereo not drawn) [Example 12] | ≥ 70% | ≥ 70% | –
8 | Cc1nc(C(F)(F)F)c(C(=O)N(C(C)COc2ccc(Cl)cc2Cl)C2CC2)s1 (stereo not drawn) [Example 13] | – | ≥ 70% | –
9 | Cc1cc(C(=O)N(C(C)COc2ccc(Cl)cc2Cl)C2CC2)c(C)o1 (stereo not drawn) [Example 14] | – | ≥ 70% | –
10 | Cc1nc(C(F)F)c(C(=O)N(C(C)COc2ccc(Cl)cc2Cl)C2CC2)s1 (stereo not drawn) [Example 15] | ≥ 70% | ≥ 70% | –
11 | CC(COc1ccc(Cl)cc1Cl)N(C(=O)c1cn(C)cc1C(F)(F)F)C1CC1 (stereo not drawn) [Example 16] | ≥ 70% | ≥ 70% | –
12 | Cc1nn(C)c(F)c1C(=O)N(C(C)COc1ccc(Cl)cc1Cl)C1CC1 (stereo not drawn) [Example 17] | – | – | at least 70%
13 | CC(COc1ccc(Cl)cc1Cl)N(C(=O)c1cn(C)nc1C(F)F)C1CC1 (stereo not drawn) [Example 18] | ≥ 70% | ≥ 70% | –
14 | CC(COc1ccc(Cl)cc1Cl)N(C(=O)c1cn(C)nc1I)C1CC1 (stereo not drawn) [Example 19] | – | ≥ 70% | –
15 | COc1nn(C)cc1C(=O)N(C(C)COc1ccc(Cl)cc1Cl)C1CC1 (stereo not drawn) [Example 20] | ≥ 70% | ≥ 70% | –
16 | Cc1nn(C)c(F)c1C(=O)N(CCOc1ccc(Cl)cc1Cl)C1CC1 [Example 21] | – | – | at least 70%
17 | Cn1cc(C(=O)N(CCOc2c(Cl)cc(Cl)cc2Cl)C2CC2)c(C(F)F)n1 [Example 23] | – | ≥ 70% | at least 70%
18 | CC(CN(C)c1ccccc1)N(C(=O)c1cn(C)nc1C(F)F)C1CC1 (stereo not drawn) [Example 26, N-cyclopropyl-3-(difluoromethyl)-1-methyl-N-{1-[methyl(phenyl)amino]propan-2-yl}-1H-pyrazole-4-carboxamide] | – | – | at least 70%
19 | Cn1cc(C(=O)N(CCOc2ccc(-c3ccccc3)cc2)C2CC2)c(C(F)(F)F)n1 [Example 27] | – | – | at least 70%
20 | Cc1nn(C)c(F)c1C(=O)N(CCOc1ccc(-c2ccccc2)cc1)C1CC1 [Example 29, N-[2-(biphenyl-4-yloxy)ethyl]-N-cyclopropyl-5-fluoro-1,3-dimethyl-1H-pyrazole-4-carboxamide] | – | – | at least 70%

Row | SMILES | efficacy (Alternaria solani) | efficacy (Pyrenophora teres) | protection (% of efficacy) [1]
21 | Cn1cc(C(=O)N(CCOc2ccc(-c3ccccc3)cc2)C2CC2)c(C(F)F)n1 [Example 30] | – | – | at least 70%
22 | Cn1cc(C(=O)N(CCOc2c(Cl)cccc2Cl)C2CC2)c(C(F)(F)F)n1 [Example 31] | ≥ 70% | ≥ 70% | –
23 | Cc1nc(C(F)(F)F)c(C(=O)N(CCOc2c(Cl)cccc2Cl)C2CC2)s1 [Example 32] | – | ≥ 70% | –
24 | Cc1nc(C(F)F)c(C(=O)N(CCOc2c(Cl)cccc2Cl)C2CC2)s1 [Example 34] | – | ≥ 70% | –
25 | Cn1cc(C(=O)N(CCOc2c(Cl)cccc2Cl)C2CC2)c(C(F)(F)F)c1 [Example 35] | ≥ 70% | ≥ 70% | –
26 | Cc1nn(C)c(F)c1C(=O)N(CCOc1c(Cl)cccc1Cl)C1CC1 [Example 36] | – | – | at least 70%
27 | Cn1cc(C(=O)N(CCOc2c(Cl)cccc2Cl)C2CC2)c(C(F)F)n1 [Example 38] | – | ≥ 70% | –
28 | CCc1nn(C)c(F)c1C(=O)N(CCOc1c(Cl)cccc1Cl)C1CC1 [Example 39] | ≥ 70% | ≥ 70% | –
29 | Cn1cc(C(=O)N(CCOc2c(Cl)cccc2Cl)C2CC2)c(I)n1 [Example 40] | ≥ 70% | ≥ 70% | –
30 | COc1nn(C)cc1C(=O)N(CCOc1c(Cl)cccc1Cl)C1CC1 [Example 41] | – | ≥ 70% | –
31 | Cn1cc(C(=O)N(CCOc2ccccc2Cl)C2CC2)c(C(F)(F)F)n1 [Example 42] | – | ≥ 70% | –
32 | Cc1cc(C(=O)N(CCOc2ccccc2Cl)C2CC2)c(C)o1 [Example 44] | ≥ 70% | ≥ 70% | –
33 | Cc1nc(C(F)F)c(C(=O)N(CCOc2ccccc2Cl)C2CC2)s1 [Example 45] | ≥ 70% | ≥ 70% | –
34 | Cn1cc(C(=O)N(CCOc2ccccc2Cl)C2CC2)c(C(F)(F)F)c1 [Example 46] | ≥ 70% | ≥ 70% | –
35 | Cn1nc(C(F)(F)F)c(C(=O)N(CCOc2ccccc2Cl)C2CC2)c1F [Example 48] | ≥ 70% | ≥ 70% | –
36 | Cn1cc(C(=O)N(CCOc2ccccc2Cl)C2CC2)c(C(F)F)n1 [Example 49] | ≥ 70% | ≥ 70% | –
37 | CCc1nn(C)c(F)c1C(=O)N(CCOc1ccccc1Cl)C1CC1 [Example 50] | ≥ 70% | ≥ 70% | –
38 | Cn1cc(C(=O)N(CCOc2ccccc2Cl)C2CC2)c(I)n1 [Example 51] | ≥ 70% | ≥ 70% | –
39 | COc1nn(C)cc1C(=O)N(CCOc1ccccc1Cl)C1CC1 [Example 52] | – | ≥ 70% | –
40 | Cc1cc(C)c(SCCN(C(=O)c2c(C)nn(C)c2F)C2CC2)c(C)c1 [Example 53] | – | – | at least 70%
